Results reported in publication PMC3757464.
Results are given in words; binding and its absence hold for the method and conditions named. Binding seen in cells or lysates may run through a third protein. A result given as binding can be weak or reduced; the word gives no strength.

Tests used:
Assay in all cases: pull-down; 15 µg recombinant GST-fused Lmo7 domain incubated 1.5 h at 4°C with HeLa lysate (GST Lysis Buffer: 100 mM HEPES pH 7.4, 150 mM NaCl, 2 mM EDTA, 0.1% SDS, 1% Triton X-100, 1 mM DTT), held on glutathione beads; immunoblot for p130Cas or paxillin; only the target purified
[1] = molecular target: GST-fused predicted CH (Calponin Homology) domain of rLmo7a (rat)
[2] = molecular target: GST-fused predicted PDZ domain of rLmo7a (rat)
[3] = molecular target: GST-fused LIM domain of rLmo7a (rat)

Measured: binding

B1: endogenous p130Cas (protein, UniProt P56945 1-870)
chain: MNHLNVLAKALYDNVAESPDELSFRKGDIMTVLEQDTQGLDGWWLCSLHGRQGIVPGNRLKILVGMYDKKPAGPGPGPPATPAQPQPGLHAPAPPASQYTPMLPNTYQPQPDSVYLVPTPSKAQQGLYQVPGPSPQFQSPPAKQTSTFSKQTPHHPFPSPATDLYQVPPGPGGPAQDIYQVPPSAGMGHDIYQVPPSMDTRSWEGTKPPAKVVVPTRVGQGYVYEAAQPEQDEYDIPRHLLAPGPQDIYDVPPVRGLLPSQYGQEVYDTPPMAVKGPNGRDPLLEVYDVPPSVEKGLPPSNHHAVYDVPPSVSKDVPDGPLLREETYDVPPAFAKAKPFDPARTPLVLAAPPPDSPPAEDVYDVPPPAPDLYDVPPGLRRPGPGTLYDVPRERVLPPEVADGGVVDSGVYAVPPPAEREAPAEGKRLSASSTGSTRSSQSASSLEVAGPGREPLELEVAVEALARLQQGVSATVAHLLDLAGSAGATGSWRSPSEPQEPLVQDLQAAVAAVQSAVHELLEFARSAVGNAAHTSDRALHAKLSRQLQKMEDVHQTLVAHGQALDAGRGGSGATLEDLDRLVACSRAVPEDAKQLASFLHGNASLLFRRTKATAPGPEGGGTLHPNPTDKTSSIQSRPLPSPPKFTSQDSPDGQYENSEGGWMEDYDYVHLQGKEEFEKTQKELLEKGSITRQGKSQLELQQLKQFERLEQEVSRPIDHDLANWTPAQPLAPGRTGGLGPSDRQLLLFYLEQCEANLTTLTNAVDAFFTAVATNQPPKIFVAHSKFVILSAHKLVFIGDTLSRQAKAADVRSQVTHYSNLLCDLLRGIVATTKAAALQYPSPSAAQDMVERVKELGHSTQQFRRVLGQLAAA
binds: all assays above
